{"source": "paper PMC11223475", "target": "Bacillus megaterium gas vesicle (GV) shell composed of GvpB (Bacillus megaterium)", "assay": "flow cytometry of isolated gas vesicles; GvpC^eGFP coexpressed simultaneously with wt-GVs, GVs isolated and analysed", "note": "Results are given in words; binding and its absence hold for the method and conditions named. Binding calls can cover weak binding; strength is not graded here. Where a sequence is shown, tags or fusion partners need not be part of it.", "data": [{"binder": "GvpC^eGFP coexpressed with wt-GVs (GvpC from Anabaena flos-aquae with C-terminal eGFP) (protein, UniProt P09413 1-193) MISLMAKIRQEHQSIAEKVAELSLETREFLSVTTAKRQEQAEKQAQELQAFYKDLQETSQQFLSETAQARIAQAEKQAQELLAFHKELQETSQQFLSATAQARIAQAEKQAQELLAFYQEVRETSQQFLSATAQARIAQAEKQAQELLAFHKELQETSQQFLSATADARTAQAKEQKESLLKFRQDLFVSIFG", "values": [{"measurement": "binding", "value": "binds"}]}]}
